These are yes or no findings as the source states them, for the method shown. In cells and extracts the contact can be indirect. Some entries that bind do so weakly or less than the wild type.
Molecular target: Low-density lipoprotein receptor-related protein 1 (human (endogenous in hLECs)) (UniProt Q07954)
Assay: co-IP; living hLECs treated with His-tagged recombinant human Hsp90α (200 ng/mL) for 15 min, washed with PBS; interactions stabilised with 3 mg/mL DTBP cross-linker for 2 h at 4 °C; lysis in 20 mM Tris, 150 mM NaCl, 1% Triton X-100; supernatant incubated with indicated antibodies overnight at 4 °C; protein A-sepharose beads; Western blotting; only the binder purified

Sequences of proteins named here, by UniProt entry; tags and fusion partners are left off. Residues count along the entry.
UniProt Q07954, residues 20-4544: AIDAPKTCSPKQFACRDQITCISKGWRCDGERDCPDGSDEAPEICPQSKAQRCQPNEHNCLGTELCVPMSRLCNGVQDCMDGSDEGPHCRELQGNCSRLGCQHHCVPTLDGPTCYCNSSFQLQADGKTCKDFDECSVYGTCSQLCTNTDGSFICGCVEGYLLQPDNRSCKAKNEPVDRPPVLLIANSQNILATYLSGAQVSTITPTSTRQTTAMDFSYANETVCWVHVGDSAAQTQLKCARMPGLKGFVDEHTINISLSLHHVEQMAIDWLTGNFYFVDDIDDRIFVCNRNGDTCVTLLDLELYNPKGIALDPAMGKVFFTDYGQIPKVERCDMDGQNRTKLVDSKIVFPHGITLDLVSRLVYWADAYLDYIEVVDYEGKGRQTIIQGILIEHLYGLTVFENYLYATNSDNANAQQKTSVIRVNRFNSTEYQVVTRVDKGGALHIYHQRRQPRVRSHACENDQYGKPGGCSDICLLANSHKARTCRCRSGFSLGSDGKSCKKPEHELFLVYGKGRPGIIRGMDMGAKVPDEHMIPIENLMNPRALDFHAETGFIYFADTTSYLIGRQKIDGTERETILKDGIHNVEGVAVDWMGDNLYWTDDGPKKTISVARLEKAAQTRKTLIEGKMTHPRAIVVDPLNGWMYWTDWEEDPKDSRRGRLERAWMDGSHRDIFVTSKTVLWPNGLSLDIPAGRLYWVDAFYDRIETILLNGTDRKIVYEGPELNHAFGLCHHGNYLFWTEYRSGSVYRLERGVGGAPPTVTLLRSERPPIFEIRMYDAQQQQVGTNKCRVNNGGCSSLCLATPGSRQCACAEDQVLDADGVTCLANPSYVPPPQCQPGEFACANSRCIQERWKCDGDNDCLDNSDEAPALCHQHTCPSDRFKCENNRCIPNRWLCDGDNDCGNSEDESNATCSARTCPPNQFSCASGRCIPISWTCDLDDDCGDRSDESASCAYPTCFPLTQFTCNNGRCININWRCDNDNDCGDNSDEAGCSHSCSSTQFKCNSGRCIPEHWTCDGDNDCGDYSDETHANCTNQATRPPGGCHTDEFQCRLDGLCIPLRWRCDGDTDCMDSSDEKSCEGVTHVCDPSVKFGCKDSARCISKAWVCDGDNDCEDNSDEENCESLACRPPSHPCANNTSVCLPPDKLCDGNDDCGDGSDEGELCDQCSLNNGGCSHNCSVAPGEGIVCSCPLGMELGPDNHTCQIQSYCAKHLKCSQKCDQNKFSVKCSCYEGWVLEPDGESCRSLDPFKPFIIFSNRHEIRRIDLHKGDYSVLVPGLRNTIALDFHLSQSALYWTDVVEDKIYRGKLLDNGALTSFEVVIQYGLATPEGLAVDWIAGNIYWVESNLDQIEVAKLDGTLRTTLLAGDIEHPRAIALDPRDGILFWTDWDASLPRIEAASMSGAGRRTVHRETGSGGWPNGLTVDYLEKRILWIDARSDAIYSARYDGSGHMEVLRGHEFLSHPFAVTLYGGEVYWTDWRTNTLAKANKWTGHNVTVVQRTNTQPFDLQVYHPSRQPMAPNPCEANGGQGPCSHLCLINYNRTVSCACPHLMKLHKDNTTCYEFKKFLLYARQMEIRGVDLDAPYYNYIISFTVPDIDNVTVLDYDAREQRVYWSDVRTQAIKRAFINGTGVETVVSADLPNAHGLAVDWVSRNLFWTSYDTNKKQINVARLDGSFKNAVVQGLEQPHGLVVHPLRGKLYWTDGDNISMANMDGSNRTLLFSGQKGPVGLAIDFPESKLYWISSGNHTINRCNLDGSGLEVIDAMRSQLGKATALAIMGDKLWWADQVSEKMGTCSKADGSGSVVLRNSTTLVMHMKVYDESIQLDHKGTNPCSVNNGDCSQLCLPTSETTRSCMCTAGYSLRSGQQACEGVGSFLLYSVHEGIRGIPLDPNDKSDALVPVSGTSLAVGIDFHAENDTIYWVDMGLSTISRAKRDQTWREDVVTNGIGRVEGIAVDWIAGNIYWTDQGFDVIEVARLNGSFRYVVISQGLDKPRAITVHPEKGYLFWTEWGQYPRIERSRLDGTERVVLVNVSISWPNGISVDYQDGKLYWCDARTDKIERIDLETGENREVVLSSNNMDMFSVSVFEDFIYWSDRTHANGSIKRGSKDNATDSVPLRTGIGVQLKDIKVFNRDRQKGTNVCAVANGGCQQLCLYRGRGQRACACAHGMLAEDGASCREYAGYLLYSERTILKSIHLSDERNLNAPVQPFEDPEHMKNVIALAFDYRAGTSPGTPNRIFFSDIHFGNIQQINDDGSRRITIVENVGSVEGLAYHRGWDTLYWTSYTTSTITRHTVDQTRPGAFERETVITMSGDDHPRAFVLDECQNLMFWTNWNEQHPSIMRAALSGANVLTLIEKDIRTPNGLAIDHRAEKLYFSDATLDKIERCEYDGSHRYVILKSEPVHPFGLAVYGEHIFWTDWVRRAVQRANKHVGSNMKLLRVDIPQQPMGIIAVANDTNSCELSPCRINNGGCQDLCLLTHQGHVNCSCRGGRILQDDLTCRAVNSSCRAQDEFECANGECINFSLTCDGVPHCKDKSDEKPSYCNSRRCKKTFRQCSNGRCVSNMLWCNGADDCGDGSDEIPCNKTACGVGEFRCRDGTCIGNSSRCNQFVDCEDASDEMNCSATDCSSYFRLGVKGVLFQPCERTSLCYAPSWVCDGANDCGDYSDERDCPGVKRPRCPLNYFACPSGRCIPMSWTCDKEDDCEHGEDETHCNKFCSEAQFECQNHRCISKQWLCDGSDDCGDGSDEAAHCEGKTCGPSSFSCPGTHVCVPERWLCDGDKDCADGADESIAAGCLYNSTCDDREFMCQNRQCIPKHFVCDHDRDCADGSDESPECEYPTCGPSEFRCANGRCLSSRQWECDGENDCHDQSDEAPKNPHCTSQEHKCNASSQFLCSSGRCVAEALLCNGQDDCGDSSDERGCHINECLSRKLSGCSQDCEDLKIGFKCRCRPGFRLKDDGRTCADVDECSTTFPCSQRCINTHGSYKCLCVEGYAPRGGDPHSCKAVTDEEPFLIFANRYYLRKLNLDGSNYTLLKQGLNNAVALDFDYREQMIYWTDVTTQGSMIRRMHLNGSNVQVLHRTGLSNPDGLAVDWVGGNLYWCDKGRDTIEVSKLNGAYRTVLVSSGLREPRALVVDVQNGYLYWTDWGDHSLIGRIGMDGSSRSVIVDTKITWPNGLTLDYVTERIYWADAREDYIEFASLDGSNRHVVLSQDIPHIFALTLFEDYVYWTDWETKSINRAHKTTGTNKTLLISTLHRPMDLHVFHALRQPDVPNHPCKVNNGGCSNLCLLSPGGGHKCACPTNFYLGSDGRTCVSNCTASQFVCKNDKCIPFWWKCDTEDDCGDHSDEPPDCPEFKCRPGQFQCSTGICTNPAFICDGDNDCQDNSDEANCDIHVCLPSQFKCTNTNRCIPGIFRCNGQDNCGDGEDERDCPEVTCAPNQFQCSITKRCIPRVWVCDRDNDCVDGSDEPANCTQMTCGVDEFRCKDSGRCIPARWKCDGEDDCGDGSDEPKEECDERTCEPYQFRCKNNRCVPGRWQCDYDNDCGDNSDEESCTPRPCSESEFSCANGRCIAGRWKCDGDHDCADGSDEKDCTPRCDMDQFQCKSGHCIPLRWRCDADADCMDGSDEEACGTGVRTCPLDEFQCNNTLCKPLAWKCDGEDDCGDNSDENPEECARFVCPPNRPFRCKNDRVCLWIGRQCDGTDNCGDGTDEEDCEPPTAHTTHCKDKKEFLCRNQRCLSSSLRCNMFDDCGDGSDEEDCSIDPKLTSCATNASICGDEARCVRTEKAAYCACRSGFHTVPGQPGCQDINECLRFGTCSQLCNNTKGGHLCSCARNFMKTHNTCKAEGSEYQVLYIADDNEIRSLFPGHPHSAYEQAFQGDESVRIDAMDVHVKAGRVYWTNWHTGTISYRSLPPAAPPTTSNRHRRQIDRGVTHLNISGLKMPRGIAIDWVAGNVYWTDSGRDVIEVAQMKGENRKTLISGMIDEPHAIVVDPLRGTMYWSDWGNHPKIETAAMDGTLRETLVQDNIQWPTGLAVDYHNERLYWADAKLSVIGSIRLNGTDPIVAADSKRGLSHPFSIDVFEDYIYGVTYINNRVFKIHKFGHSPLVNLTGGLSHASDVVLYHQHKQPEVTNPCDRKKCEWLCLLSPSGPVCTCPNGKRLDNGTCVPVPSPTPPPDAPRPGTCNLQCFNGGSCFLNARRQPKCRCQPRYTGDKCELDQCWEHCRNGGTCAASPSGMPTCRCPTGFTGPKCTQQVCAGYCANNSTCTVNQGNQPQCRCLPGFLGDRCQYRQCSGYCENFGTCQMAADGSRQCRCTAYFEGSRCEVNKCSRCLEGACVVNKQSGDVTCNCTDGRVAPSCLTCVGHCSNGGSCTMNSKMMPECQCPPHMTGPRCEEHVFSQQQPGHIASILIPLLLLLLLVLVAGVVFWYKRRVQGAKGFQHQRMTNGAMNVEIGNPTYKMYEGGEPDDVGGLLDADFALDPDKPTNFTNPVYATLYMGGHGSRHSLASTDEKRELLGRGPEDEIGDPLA

binding: binds
Substance: Recombinant human Hsp90α protein (with 6 × His Tag) (from UniProt P07900 1-732)

— article PMC8305043
